Results are given in words; binding and its absence hold for the method and conditions named. Some binding calls cover weakened binding; strength is not graded here.
Target: T1, soluble human FcRn (shFcRn) (human, UniProt P55899 24-297; P61769 21-119)
T1 construct: For crystallography it was expressed in CHOK1SV cells and deglycosylated with PNGaseF; biotinylated for phage selection; also called hFcRn/β2m; FcRn-biotin
Test: photo-cross-linking competition: sh-FcRn pre-incubated with 100 eq unlabeled peptide, then 2 eq biotinylated Bpa-516, UV 365 nm, biotin blot [Cont.]

The chains behind the UniProt entries cited, without tags or fusion partners. Where a name states a change or a piece, a line headed by the entry shows the natural chain unless it says otherwise.
UniProt P55899: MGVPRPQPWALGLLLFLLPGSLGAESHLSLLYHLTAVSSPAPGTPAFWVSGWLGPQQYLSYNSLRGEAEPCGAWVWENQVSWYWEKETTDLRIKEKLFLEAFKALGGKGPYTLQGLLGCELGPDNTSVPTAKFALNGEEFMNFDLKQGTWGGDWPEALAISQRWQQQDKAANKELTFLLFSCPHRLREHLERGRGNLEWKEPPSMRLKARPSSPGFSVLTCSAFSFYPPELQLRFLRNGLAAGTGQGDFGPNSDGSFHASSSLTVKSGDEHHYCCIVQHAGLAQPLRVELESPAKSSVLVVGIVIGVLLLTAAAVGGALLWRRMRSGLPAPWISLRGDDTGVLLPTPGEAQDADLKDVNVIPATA

In the case of VMTCWWDQGFECAKL (the two C printed larger on the sheet (C4, C12)) [SYN516], the binding is reported as “binds”.

Source: patent US20170209529A1 (BRIGHAM AND WOMEN S HOSPITAL, published 2017)
